In the supplement of paper PMC4635364:
“And” between values parts separate entries of the source, which are not always exact repeats. Identical values can stand only once. Counter-ions that a name gives are not always drawn. The list shows a part of the results. Single values are uncertain here, since repeats match poorly.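 Human fetal ventral-midbrain neural progenitor line ReNCell VM, differentiated without mitogens. Images stained for doublecortin (early neurons) or tyrosine hydroxylase (dopaminergic neurons) were scored by blinded raters against untreated wells (0 = no change). Repeats and both raters were averaged, and compounds averaging 2 or higher were picked as hits for retesting.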

How the values were obtained:
ReNCell VM [1] = assay: neuronal differentiation score (DCX+ cell fraction vs untreated, manual image score) (score (-3 to 3)); higher = more neuronal differentiation; settings: 2 uM, 2 weeks
ReNCell VM [2] = assay: dopaminergic neuron differentiation score (TH+ cell fraction vs untreated, manual image score) (score (0 to 3)); higher = more TH+ dopaminergic neuron differentiation; settings: 2 uM, 4 weeks, BDNF 10 ng/ml + GDNF 10 ng/ml

CC1O[C@H](O[C@]2(O[C@H]3CC[C@@]4(C)C(=CC[C@H]5[C@@H]6C[C@H]7[C@H]([C@H](C)[C@H]8CC[C@H](C)CN87)[C@@]6(C)CC[C@@H]54)C3)C[C@@H](O[C@@H]3OC(CO)[C@@H](O)[C@@H](O)C3O)[C@@H](O)C(CO)O2)C(O)[C@@H](O)[C@H]1O (stereo partly drawn) [Solanine alpha]
neuronal differentiation score (ReNCell VM [1]; library: Phytochemical): inactive: 0
dopaminergic neuron differentiation score (ReNCell VM [2]; library: Phytochemical): inactive: 0

c1ccc(C(NCCNC(c2ccccc2)c2ccccc2)c2ccccc2)cc1 [AMN 082 dihydrochloride]
neuronal differentiation score (ReNCell VM [1]; library: Tocriscreen): inactive: 0
dopaminergic neuron differentiation score (ReNCell VM [2]; library: Tocriscreen): inactive: 0

CC1Nc2ccc(Cl)cc2S(=O)(=O)N1 (stereo not drawn)
neuronal differentiation score (ReNCell VM [1]; library: Tocriscreen): inactive: -1
dopaminergic neuron differentiation score (ReNCell VM [2]; library: Tocriscreen): inactive: 0

Nc1ccn([C@@H]2O[C@H](CO)[C@@H](O)[C@@H]2O)c(=O)n1 [Cytosine-1-beta-D-arabinofuranoside hydrochloride]
neuronal differentiation score (ReNCell VM [1]; library: LOPAC): inactive: 0
dopaminergic neuron differentiation score (ReNCell VM [2]; library: LOPAC): inactive: 0

CC(C)n1nnc2cc(C(=O)O)ccc21
neuronal differentiation score (ReNCell VM [1]; library: Tocriscreen): inactive: 0
dopaminergic neuron differentiation score (ReNCell VM [2]; library: Tocriscreen): inactive: 0

CC1(C)OC(=O)NC1=O [Dimethadione]
neuronal differentiation score (ReNCell VM [1]; library: Prestwick): inactive: 0
dopaminergic neuron differentiation score (ReNCell VM [2]; library: Prestwick): inactive: 0

COc1c2ccoc2cc2oc(C)cc(=O)c12
neuronal differentiation score (ReNCell VM [1]; library: Spectrum): inactive: 0
dopaminergic neuron differentiation score (ReNCell VM [2]; library: Spectrum): inactive: 0

CC(C)(C)NCC(O)COc1cccc2c1CCC(=O)N2 (stereo not drawn) [Carteolol hydrochloride]
neuronal differentiation score (ReNCell VM [1]; library: Prestwick): inactive: 0
dopaminergic neuron differentiation score (ReNCell VM [2]; library: Prestwick): inactive: 0

COc1cc2c(cc1OC)-c1cc3nc4ccccc4nc3n1C(C)(C)C2
neuronal differentiation score (ReNCell VM [1]; library: Tocriscreen): inactive: 0
dopaminergic neuron differentiation score (ReNCell VM [2]; library: Tocriscreen): inactive: 0

CCCCCCCC/C=C\CCCCCCCC(N)=O [Oleamide]
neuronal differentiation score (ReNCell VM [1]; library: Tocriscreen): inactive: 0
dopaminergic neuron differentiation score (ReNCell VM [2]; library: Tocriscreen): inactive: 0

CC1=C(C(=O)O)N2C(=O)[C@@H](NC(=O)[C@H](N)C3=CCC=CC3)[C@H]2SC1 [Cephradine]
neuronal differentiation score (ReNCell VM [1]; library: LOPAC): inactive: 0
dopaminergic neuron differentiation score (ReNCell VM [2]; library: LOPAC): inactive: 1

CC(=O)NC1[C@@H](O)OC(CO)[C@@H](O)[C@H]1O[C@H](C)C(=O)O (stereo in doubt) [Muramic acid, N-acetyl]
neuronal differentiation score (ReNCell VM [1]; library: Phytochemical): inactive: 0
dopaminergic neuron differentiation score (ReNCell VM [2]; library: Phytochemical): inactive: 0

CCO/C(O)=C1\C(C)=NC(c2ccccc2)=C(C(=O)OCc2ccc([N+](=O)[O-])cc2)C1C#Cc1ccccc1 (stereo not drawn)
neuronal differentiation score (ReNCell VM [1]; library: Tocriscreen): inactive: 0
dopaminergic neuron differentiation score (ReNCell VM [2]; library: Tocriscreen): inactive: 0

CC(C)=CCC[C@@H](C)[C@H]1CC[C@@]2(C)C3=C(CC[C@]12C)[C@@]1(C)CC[C@H](O)C(C)(C)[C@@H]1CC3
neuronal differentiation score (ReNCell VM [1]; library: Spectrum): inactive: 1
dopaminergic neuron differentiation score (ReNCell VM [2]; library: Spectrum): inactive: 0

Cn1c(=O)c2nc(C3CCCC3)[nH]c2n(C)c1=O
neuronal differentiation score (ReNCell VM [1]; library: Spectrum): inactive: 0
dopaminergic neuron differentiation score (ReNCell VM [2]; library: Spectrum): inactive: 0

COc1cc(OC)cc(OC)c1
neuronal differentiation score (ReNCell VM [1]; library: Spectrum): inactive: 0
dopaminergic neuron differentiation score (ReNCell VM [2]; library: Spectrum): inactive: 0

CC(C)COCC(CN(Cc1ccccc1)c1ccccc1)N1CCCC1 (stereo not drawn)
neuronal differentiation score (ReNCell VM [1]; library: Spectrum): inactive: 0
dopaminergic neuron differentiation score (ReNCell VM [2]; library: Spectrum): inactive: 0

C[S+]([O-])c1ccc(-c2nc(-c3ccc(F)cc3)c(-c3ccncc3)[nH]2)cc1 (stereo not drawn)
neuronal differentiation score (ReNCell VM [1]; library: Tocriscreen): active: 3 and inactive: 1
dopaminergic neuron differentiation score (ReNCell VM [2]; library: Tocriscreen): inactive: 0

CC(C)CC(NC(=O)OCC1c2ccccc2-c2ccccc21)C(=O)O (stereo not drawn)
neuronal differentiation score (ReNCell VM [1]; library: Tocriscreen): inactive: 0
dopaminergic neuron differentiation score (ReNCell VM [2]; library: Tocriscreen): inactive: 0

CC1=CC(=O)CC(C)(C)[C@@]1(O)/C=C/C(C)=C\C(=O)O (racemic) [(+/-)-2-cis-4-trans-Abscisic acid]
neuronal differentiation score (ReNCell VM [1]; library: Phytochemical): inactive: 0
dopaminergic neuron differentiation score (ReNCell VM [2]; library: Phytochemical): inactive: 0

COC(=O)CC1C(C)(C)C(OC(C)=O)[C@@H]2[C@@H](OC(C)=O)[C@]34O[C@@]2(O)[C@]1(C)C3CC[C@]1(C)C4=CC(=O)O[C@H]1c1ccoc1 (stereo partly drawn)
neuronal differentiation score (ReNCell VM [1]; library: Spectrum): inactive: 0
dopaminergic neuron differentiation score (ReNCell VM [2]; library: Spectrum): inactive: 1

CN1CCN(CCCN2c3ccccc3Sc3ccc(S(=O)(=O)N(C)C)cc32)CC1 [Thioproperazine dimesylate]
neuronal differentiation score (ReNCell VM [1]; library: Prestwick): inactive: 0
dopaminergic neuron differentiation score (ReNCell VM [2]; library: Prestwick): inactive: 0

Nc1nc2c(ccc3ccccc32)s1
neuronal differentiation score (ReNCell VM [1]; library: Tocriscreen): inactive: 0
dopaminergic neuron differentiation score (ReNCell VM [2]; library: Tocriscreen): inactive: 0

CC(C)=CCC/C(C)=C/COc1ccc2ccc(=O)oc2c1
neuronal differentiation score (ReNCell VM [1]; library: Spectrum): inactive: 0
dopaminergic neuron differentiation score (ReNCell VM [2]; library: Spectrum): inactive: 0

[N-]=[N+]=Nc1ccc(C(=O)CSC[C@H](NC(=O)CC[C@H](N)C(=O)O)C(=O)NCC(=O)O)cc1 [S-(p-Azidophenacyl)glutathione]
neuronal differentiation score (ReNCell VM [1]; library: LOPAC): inactive: 0
dopaminergic neuron differentiation score (ReNCell VM [2]; library: LOPAC): inactive: 0

NC(=O)CCCCn1ccc(NC(N)=NCC(F)(F)F)n1
neuronal differentiation score (ReNCell VM [1]; library: Tocriscreen): inactive: 0
dopaminergic neuron differentiation score (ReNCell VM [2]; library: Tocriscreen): inactive: 0

Cc1cn([C@H]2C=C[C@@H](CO)O2)c(=O)[nH]c1=O [Stavudine]
neuronal differentiation score (ReNCell VM [1]; library: Prestwick): inactive: 0
dopaminergic neuron differentiation score (ReNCell VM [2]; library: Prestwick): inactive: 0

NC(=O)NO [Hydroxyurea]
neuronal differentiation score (ReNCell VM [1]; library: LOPAC): inactive: 0
dopaminergic neuron differentiation score (ReNCell VM [2]; library: LOPAC): inactive: 0

CN1[C@@H]2CC[C@H]1C[C@@H](OC(=O)C(O)c1ccccc1)C2 (mixture of isomers) [DL-Homatropine hydrobromide]
neuronal differentiation score (ReNCell VM [1]; library: LOPAC): inactive: 0
dopaminergic neuron differentiation score (ReNCell VM [2]; library: LOPAC): inactive: 0

CCCC(=O)Nc1ccc(OCC(O)CNC(C)C)c(C(C)=O)c1 (stereo not drawn)
neuronal differentiation score (ReNCell VM [1]; library: Spectrum): inactive: 1
dopaminergic neuron differentiation score (ReNCell VM [2]; library: Spectrum): inactive: 0

COc1ccc(C(=O)OC2CC3CCC(C2)N3C(C)=O)cc1OC (stereo not drawn) [convolicine]
neuronal differentiation score (ReNCell VM [1]; library: Natural): inactive: 0
dopaminergic neuron differentiation score (ReNCell VM [2]; library: Natural): inactive: 0

C[C@@H]1O[C@@H](OC[C@H]2O[C@@H](Oc3c(-c4ccc(O)c(O)c4)oc4cc(O)cc(O)c4c3=O)[C@H](O)[C@@H](O)[C@@H]2O)[C@H](O)[C@H](O)[C@H]1O [Rutin]
neuronal differentiation score (ReNCell VM [1]; library: Phytochemical): inactive: 0
dopaminergic neuron differentiation score (ReNCell VM [2]; library: Phytochemical): inactive: 0

COC(=O)N/N=C/c1c[n+]([O-])c2ccccc2[n+]1[O-] [Carbadox]
neuronal differentiation score (ReNCell VM [1]; library: Prestwick): inactive: 0
dopaminergic neuron differentiation score (ReNCell VM [2]; library: Prestwick): inactive: 0

CCCCCCCCCCC[C@@H](C[C@@H]1OC(=O)[C@H]1CCCCCC)OC(=O)[C@H](CC(C)C)NC=O [Orlistat]
neuronal differentiation score (ReNCell VM [1]; library: Tocriscreen): inactive: 0
dopaminergic neuron differentiation score (ReNCell VM [2]; library: Tocriscreen): inactive: 0
